# Measured values reported in the supplement of paper PMC12889115.
# Some of the results follow. These are raw signals, not scaled to a control.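 First-pass screen: polymyxin B was added at a level that permeabilizes the Salmonella outer membrane while sparing the inner membrane. DMSO wells, with and without polymyxin B, defined maximum growth. Because plates differed from one another, each plate's data were ranked separately and the compounds with the lowest OD600 were carried forward as hits.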
# Tested on: Salmonella enterica serovar Typhimurium SL1344
# Test: bacterial growth OD600 after 18 h with compound and polymyxin B; higher = more bacterial growth (less inhibition)
# Details: 50 µM, Mueller-Hinton broth
SMILES,bacterial growth OD600 (polymyxin B 1 µg/mL),bacterial growth OD600 (polymyxin B 0.75 µg/mL)
O=C(NCCC1=CCCCC1)C1CCC(=O)N(Cc2ccccn2)C1 (stereo unspecified),0.793,–
Cc1cccc(-n2cc(CN(C)Cc3nonc3C)c(-c3cccc(F)c3)n2)c1,0.785,–
COC(=O)C1CCN(CC2(O)CCCN(Cc3ccc(F)cc3)C2=O)CC1 (stereo unspecified),0.948,–
COc1ccc(NC(=O)CCC2CCCN(C(=O)COc3ccc(C)cc3)C2)c(C)c1 (stereo unspecified),0.915,–
COc1ccc(CC(=O)NCC2CCCN(C(=O)Cc3n[nH]c4ccccc34)C2)cc1 (stereo unspecified),0.924,–
CCOC(=O)C1(CCOc2ccccc2)CCN(Cc2ccccc2)CC1,0.787,–
O=C1CCC(C(=O)N2CCN(C3CCCCC3)C(=O)C2)CN1Cc1ccccn1 (stereo unspecified),0.874,–
c1ccc(-c2ncc(CNc3nc4nonc4nc3N3CCOCC3)s2)cc1,0.945,–
COc1ccc(OC2CCN(C(=O)C3CC3)CC2)c(C(=O)NCCCOC(C)C)c1,0.863,–
CC(=O)N1CCN(c2ncccc2CNC(=O)c2ccc(Cl)s2)CC1,–,0.782
COc1ccc(CN2CCN(Cc3ccc(F)c(F)c3)CC2CCO)c(C)c1C (stereo unspecified),0.834,–
COc1ccc2cc(C(=O)C3CCCN(C(=O)c4cscn4)C3)ccc2c1 (stereo unspecified),0.863,–
O=C(c1ccccc1OC1CCN(Cc2cc3ccccc3o2)CC1)N1CCCCC1,0.896,–
O=C(CCn1cncn1)N1CCCC(CCc2ccccc2C(F)(F)F)C1 (stereo unspecified),–,0.286
CSc1ccccc1C(=O)NC1CC(=O)N(Cc2cccc(F)c2)C1 (stereo unspecified),0.946,–
Cc1cccc(CNC(=O)C2CC23CCN(C(=O)c2ccc(-c4ccccc4F)cc2)CC3)n1 (stereo unspecified),–,0.155

# A different layout for 9 compounds above.
SMILES	bacterial growth OD600 (polymyxin B 1 µg/mL)	bacterial growth OD600 (polymyxin B 0.75 µg/mL)
O=C1CCC(C(=O)N2CCN(C3CCCCC3)C(=O)C2)CN1Cc1ccccn1 (stereo unspecified)	0.874	–
c1ccc(-c2ncc(CNc3nc4nonc4nc3N3CCOCC3)s2)cc1	0.945	–
COc1ccc(OC2CCN(C(=O)C3CC3)CC2)c(C(=O)NCCCOC(C)C)c1	0.863	–
CC(=O)N1CCN(c2ncccc2CNC(=O)c2ccc(Cl)s2)CC1	–	0.782
COc1ccc(CN2CCN(Cc3ccc(F)c(F)c3)CC2CCO)c(C)c1C (stereo unspecified)	0.834	–
COc1ccc2cc(C(=O)C3CCCN(C(=O)c4cscn4)C3)ccc2c1 (stereo unspecified)	0.863	–
O=C(c1ccccc1OC1CCN(Cc2cc3ccccc3o2)CC1)N1CCCCC1	0.896	–
O=C(CCn1cncn1)N1CCCC(CCc2ccccc2C(F)(F)F)C1 (stereo unspecified)	–	0.286
CSc1ccccc1C(=O)NC1CC(=O)N(Cc2cccc(F)c2)C1 (stereo unspecified)	0.946	–

# Additional records

SMILES,bacterial growth OD600 (polymyxin B 1 µg/mL),bacterial growth OD600 (polymyxin B 0.75 µg/mL)
COc1ccc(-c2nn(-c3ccccc3C)cc2CN2CCCN(C(C)=O)CC2)cc1F,0.689,–
Cc1c(CC(=O)N[C@H](C(N)=O)C(C)C)c2c(n1Cc1ccccc1)CCCC2=O,1.11,–
COCCCNc1nc2nonc2nc1NC1CC1,–,0.811
CCOC(=O)C1(CCOc2ccccc2)CCN(Cc2cnn(C(C)C)c2)CC1,0.961,–
CC(=O)c1cccc(OCc2cc(C(=O)N(C)CCc3nc4ccccc4[nH]3)no2)c1,–,0.833
CCN(CC)C(=O)C1CCCN(Cc2ccc3c(c2)CN(Cc2ccc(OC)c(O)c2)CCO3)C1 (stereo unspecified),–,0.769
COCCN1C(=O)CC(CC(=O)N2CCCC2c2ccc(F)cc2)(c2ccccc2OC)C1=O (stereo unspecified),–,0.802
O=C(NCc1ccc(F)cc1F)C1CCCN(C2CCN(C(=O)C3CC3)CC2)C1 (stereo unspecified),0.878,–
CN(Cc1cccs1)C(=O)c1cc(COc2ccc(F)cc2F)[nH]n1,–,0.465
O[C@@H]1CN(C/C=C/c2ccccc2)CC[C@H]1N1CCN(c2ccccc2F)CC1,0.902,–
CC(C)c1cc(C(=O)NCCN2Cc3ccccc3OC(c3ccccc3)C2)n(C)n1 (stereo unspecified),–,0.931
Cc1cc(C)nc(NCc2cccnc2Oc2ccccc2F)n1,–,0.765
COc1ccc(CN(C)C2CCCN(CCc3ccccc3)C2)c(OC)c1OC (stereo unspecified),0.931,–
COc1cccc(CN2CCC(C(Cc3ccc(F)cc3F)N(C)C(=O)c3ccco3)CC2)c1OC (stereo unspecified),–,0.806
CCOC(=O)C1(CCCc2ccccc2)CCCN(C(=O)c2cccnc2C)C1 (stereo unspecified),1.02,–
